From patent EP4786495A1

Molecular target: human BDCA2 on the HEK293/hBDCA2/FcεRIγ cell line (human)
Experiment: flow cytometry on HEK293/hBDCA2/FcεRIγ cells

binding: binds
B1: anti-BDCA2 chimeric antibody 37F2C6 (antibody, human IgG1, kappa, V domains shown)
VH: QVLLQQSGPELVRPGVSVKVSCKGSGYTFTDFAVHWVKQSQTKSLEWIGLIGTSSGSTNYNQKFKDKATMTVDKSSNTAYLELARLTSEDSAIYYCARNGYYVGYYALDYWGQGTSVTVSS
VL: QTVLTQSPAIMSASPGEKVTITCSASSSVSYMYWFQQKPGTSPKLWIYSTSNLASGVPPRFSGSGSGTSYSLTISRMEAEDAATYYCQQRRNYPHTFGGGTKLEIKR

No constants are given. Whether binding was seen depends on the method and setting. Binding can be weak; no strength is given.
